# In PubChem BioAssay AID2685 (National Center for Advancing Translational Sciences (NCATS), 2010):
# The other results are listed elsewhere or left out. Shown are side measurements of this screen, not its main read-out; they come without a call. Most of these compounds were active or inconclusive in the main read-out, so they are no random draw. Potencies come from curve fits of mixed quality, noted in brackets.
# Assay: qHTS Assay for Lipid Storage Modulators in Drosophila S3 Cells;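 on cell number change: cells counted by Cell Tracker Red CMTPX staining in the red channel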
# Conditions: BODIPY lipid droplet fluorescence, 18-24 h; for cell number change: measured here: cell count max response, cells fed with added oleic acid
# In short: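 Drosophila S3 cells loaded with oleic acid (400 uM, as added) and compounds at several concentrations; lipid droplets imaged by 488-nm laser-scanning cytometry, 500–530 nm intensity and object ratio to cell channel. Percent activity normalized to 20 uM Triacsin C.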
# [1] = measured here: lipid fluorescence (Fed channel) AC50, cells fed with added oleic acid
# [2] = measured here: cell number channel AC50, cells fed with added oleic acid
Compound,AC50 [1],cell number change [%],AC50 [2]
CCOc1cc(/C=N/NC(=O)OC)ccc1OCCSc1ccc(Cl)cc1,"1.84 µM [rising, partial curve, poor fit]",,
O=C(COC(=O)c1ccccc1NCCO)Nc1cc(C(F)(F)F)ccc1N1CCOCC1,"15.8 µM [falling, single point]",-11.9,
Cc1nc2ccc(Cl)cn2c1C(=O)NN,"3.66 µM [rising, partial curve, poor fit]",4.99,
CCOc1cc(C(=S)N2CCOCC2)ccc1OC(=O)c1ccc(C)cc1,,-52.5,"14.6 µM [falling, partial curve]"
COc1ccc(C(=O)CSc2nnc(Cn3nnc4ccccc43)n2C)cc1,,71.1,"20.6 µM [rising, single point]"
Cc1cc2cc(C#N)c(SCC(=O)Nc3nonc3C)nc2cc1C,,181,"18.4 µM [rising, partial curve]"
CCN1CCN(c2cc(C)c3cc(NC(=S)N4CCN(c5ccccc5F)CC4)ccc3n2)CC1,,30.3,
N#CCCN(Cc1ccccc1)C(=S)Nc1ccccc1,"0.461 µM [rising, partial curve, poor fit]",-34,"16.4 µM [falling, single point]"
Cc1cc(C(=O)N/N=C/c2cc([N+](=O)[O-])ccc2O)c2ccccc2n1,"0.13 µM [rising, full curve, poor fit]",-2.9,
O=C(CSc1nc2cc(Cl)ccc2c(=O)n1Cc1ccco1)Nc1ccc(S(=O)(=O)N2CCOCC2)cc1,"0.517 µM [falling, single point]",-9.36,
COc1cc(SC)ccc1C(=O)N(C)CC(=O)Nc1cccc2ccccc12,"0.00461 µM [rising, full curve, poor fit]",1.82,
O=C(CCn1c(=O)c2ccccc2n(Cc2ccccc2)c1=O)NCc1ccc2c(c1)OCO2,"2.59 µM [rising, partial curve]",,"2.31 µM [rising, partial curve]"
CCCN1CCN(CCCNC(=O)CN2C(=O)COc3ccccc32)CC1,"29.1 µM [falling, single point]",-160,
CC1CCc2c(sc(/N=C/N(C)C)c2C#N)C1 (stereo not drawn),"16.4 µM [rising, partial curve]",44.5,"23.1 µM [rising, single point]"
CNC(=O)CCn1nc(-c2ccc(C)cc2)c2ccccc2c1=O,"3.66 µM [falling, partial curve]",5.56,
CCOC(=O)C(C)n1nc(C)c2sc3ccccc3c2c1=O (stereo not drawn),"1.84 µM [falling, full curve, poor fit]",-30.9,"1.84 µM [falling, full curve, poor fit]"
COc1ccc(CN2CCNC(=O)C2CC(=O)N(C)CC2CCOCC2)c(F)c1 (stereo not drawn),"29.1 µM [rising, single point]",5.42,
CCCNC(=O)Cn1cnc2sc(C(=O)Nc3ccc4c(c3)OCO4)c(C)c2c1=O,,36.2,"20.6 µM [rising, single point]"

# Part of the list above, as tab-separated lines:
Compound	AC50 [1]	cell number change [%]	AC50 [2]
CCOc1cc(C(=S)N2CCOCC2)ccc1OC(=O)c1ccc(C)cc1		-52.5	14.6 µM [falling, partial curve]
CCCNC(=O)Cn1cnc2sc(C(=O)Nc3ccc4c(c3)OCO4)c(C)c2c1=O		36.2	20.6 µM [rising, single point]

# Later entries.

Compound,AC50 [1],cell number change [%],AC50 [2]
COc1ccccc1NC(=S)N(Cc1ccco1)Cc1cc2ccc(C)c(C)c2[nH]c1=O,"13 µM [rising, partial curve]",5.71,
CC(C)(C)C1CCC(C(=O)Nc2nccs2)CC1 (stereo not drawn),"29.1 µM [rising, single point]",-24.2,
Cc1cccc(C(=O)OCC(=O)NC(=O)c2ccccc2)c1O,"2.06 µM [falling, partial curve]",-12,
O=C(CC12CC3CC(CC(C3)C1)C2)N1CCCOC1,"0.92 µM [falling, full curve]",-0.255,
CCCN1CCN(CCCNC(=O)c2ccc(CS(=O)c3ccccc3C)o2)CC1 (stereo not drawn),"4.11 µM [falling, single point]",17.7,"2.31 µM [rising, partial curve]"
CCOC(=O)c1cccc(NC(=O)CSc2nnc(-c3ccoc3C)n2CCOC)c1,,243,"25.9 µM [rising, partial curve]"
COc1ccc(C(=S)N2CCOCC2)cc1OC(=O)c1cc([N+](=O)[O-])c(C)c([N+](=O)[O-])c1,"25.9 µM [falling, partial curve]",-76.5,"32.6 µM [falling, partial curve]"
CC1CCC(NC(=O)CN(C)S(=O)(=O)c2ccc3c(c2)CCC(=O)N3)CC1 (stereo not drawn),,-39.5,"29.1 µM [falling, single point]"
CCc1ccccc1NC(=O)C1CCCN(c2nn3c(=O)cc(C)nc3s2)C1 (stereo not drawn),"23.1 µM [falling, single point]",0.576,
CN(CC(=O)Nc1ccc(Cl)c(S(=O)(=O)N2CCOCC2)c1)C(=O)c1ccc(C#N)cc1,"1.03 µM [falling, full curve, poor fit]",-34.5,"25.9 µM [falling, partial curve]"
O=[N+]([O-])c1ccccc1S(=O)(=O)NC1CC2CCC1C2 (stereo not drawn),"23.1 µM [falling, partial curve, poor fit]",-13,
Cc1[nH]n(-c2ccccc2)c(=S)c1C=Nc1ccc([N+](=O)[O-])cc1,,-83,"25.9 µM [falling, partial curve]"
COc1ccc(C(=O)/C=C/C(=O)N(CC(=O)NC2CCCCC2)Cc2ccccc2)c(O)c1,"4.11 µM [falling, full curve]",-39.7,"2.59 µM [falling, full curve]"
N#Cc1ccccc1Sc1ccccc1C(=O)OCC(=O)NC12CC3CC(CC(C3)C1)C2,"4.61 µM [falling, partial curve]",26.6,
CC(C)c1ccc(CC(NC(=O)c2ccccc2)C(=O)NCC(=O)O)cc1 (stereo not drawn),,-61,
Cc1cccc(NC(=S)NNC(=O)c2ccc3c(c2)OCO3)c1,"0.0731 µM [rising, full curve, poor fit]",3.62,
O=C(Nc1cccc(-c2cccc(F)c2)c1)C1CCN(C2CCOCC2)CC1,"0.58 µM [falling, single point]",,
